# Out of some 360,000 compounds screened, about 7,500 (2.1%) were called active. The inconclusive results got no clear call from the source; some entries with a clear call stand among them for comparison. Calls follow the shape of the dose curve; as a rule, active = well fitted inhibition curve with a large enough effect; inconclusive = small, poorly fitted or top-dose-only effect, or effect the other way; inactive = flat fitted curve, though single readings scatter. Potencies of inconclusive entries are doubtful fits and often do not repeat.
# Experiment: Nrf2 qHTS screen for inhibitors; also: nearly all actives have a fitted effect of over 60% in size
# Conditions: A549 ARE-Fluc reporter, luciferase luminescence, 18-24 h; series mostly up to 46 µM
# How it was run: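 Reporter: ARE-Fluc in A549. Exposure: 18-24 h, 37 °C, 5% CO2, 5% FBS OPTI-MEM. Readouts: fluorescent cytotoxicity (CellTiter-Fluor), then luminescent Nrf2 signal after BugLite.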
# Potency is read from the fitted curve at half-maximal effect.
row,Structure (SMILES),Potency
1,C=CCN(C(=O)CCc1ccccc1OC)c1nc(-c2ccc(S(C)(=O)=O)cc2)cs1,"inconclusive: 7.31 µM [falling, partial curve, poor fit]"
2,CCOC(=O)COc1ccc2c3c(c(=O)oc2c1C)CCC3,inactive
3,CCOC(=O)c1c(CSc2ccccc2)n(C)c2cc(Br)c(O)c(CN(C)C)c12,inactive
4,O=C(/C=C/Nc1ccccc1)c1ccccc1,"inconclusive: 14.6 µM [activator, partial curve]"
5,CN1C(=O)c2ccccc2Sc2ccc(NC(=O)N3CCN(c4ccc(F)cc4)CC3)cc21,"inconclusive: 9.2 µM [falling, partial curve]"
6,COc1ccc(/C=N/Nc2nncc3ccccc23)c(OC)c1,"inconclusive: 0.92 µM [activator, full curve, poor fit]"
7,CCOc1cc(/C=N/NC(=O)COc2ccccc2C)ccc1OC(=O)c1cccs1,"inconclusive: 0.0046 µM [falling, full curve, poor fit]"
8,Cc1cccc(NC(=O)c2ccccc2C(=O)O)c1,"inconclusive: 3.26 µM [falling, full curve, poor fit]"
9,O=C(CN1CCN(c2ccccn2)CC1)N(c1ccccc1)c1ccc2ccccc2c1,inactive
10,CSc1ccc(/C=N/Nc2nc(C)cc(=O)[nH]2)cc1,"inconclusive: 3.66 µM [activator, partial curve, poor fit]"
11,COc1ccccc1C(C)Nc1nc(-c2cccnc2)nc2ccccc12 (stereo unspecified),inactive
12,O=C(Nc1cccc(Cl)c1)c1nc[nH]c1C(=O)NCCN(CCNC(=O)c1[nH]cnc1C(=O)Nc1cccc(Cl)c1)CCNC(=O)c1[nH]cnc1C(=O)Nc1cccc(Cl)c1,"inconclusive: 9.2 µM [activator, partial curve]"
13,CCCCn1c(SCC(N)=O)nc2c(sc3ccccc32)c1=O,"inconclusive: 14.6 µM [falling, partial curve, poor fit]"
14,CC(C)(C)C(=O)NC(=S)NNC(=O)c1ccc(Cl)cc1Cl,active: 8.2 µM
15,C[C@@H]1CN([C@@H](C)CO)C(=O)c2cc(NC(=O)CCC(F)(F)F)ccc2O[C@H]1CN(C)Cc1ccc(Cl)c(Cl)c1,"inconclusive: 29.1 µM [falling, single point]"
16,O=C(Cn1c(-c2cccs2)cc2cc(F)ccc21)N1CCN(c2ccccc2)CC1,inactive
17,COc1ccc(CNc2oc(/C=C/c3cc(OC)c(OC)c(OC)c3)nc2C#N)cc1,inactive
18,CCCCOc1ccc(S(=O)(=O)Nc2ccc(NC(C)=O)cc2)cc1,"inconclusive: 18.4 µM [falling, single point]"
19,Cc1nn(-c2ccccc2)c2[nH]c(=O)c(CNc3ccc4c(c3)OCCO4)cc12,"inconclusive: 18.4 µM [activator, partial curve]"
20,Cc1cccn2c(=O)c(C(=O)NC(C)c3ccccc3)c(O)nc12 (stereo unspecified),active: 6.51 µM
21,Cc1ccc(C=Nc2ccccc2C#N)s1,"inconclusive: 16.4 µM [activator, partial curve, poor fit]"

# In a second layout: results already given.
row | Structure (SMILES) | Potency
4 | O=C(/C=C/Nc1ccccc1)c1ccccc1 | inconclusive: 14.6 µM [activator, partial curve]
5 | CN1C(=O)c2ccccc2Sc2ccc(NC(=O)N3CCN(c4ccc(F)cc4)CC3)cc21 | inconclusive: 9.2 µM [falling, partial curve]
6 | COc1ccc(/C=N/Nc2nncc3ccccc23)c(OC)c1 | inconclusive: 0.92 µM [activator, full curve, poor fit]
7 | CCOc1cc(/C=N/NC(=O)COc2ccccc2C)ccc1OC(=O)c1cccs1 | inconclusive: 0.0046 µM [falling, full curve, poor fit]

# The list continues.

row,Structure (SMILES),Potency
1,CCOc1ccccc1CN1CCN(Cc2nc3c(s2)CCCC3)CC1CCO (stereo unspecified),"inconclusive: 20.6 µM [falling, partial curve, poor fit]"
2,COc1ccc(S(=O)(=O)Nc2cc(OC)c(NC(=O)c3ccco3)cc2OC)cc1,"inconclusive: 20.6 µM [falling, partial curve, poor fit]"
3,COc1ccc(-c2cccc([C@H]3[C@@H]4C=CC[C@@H](C)[C@@H]4C(=O)N3Cc3ccccc3)c2)cc1,"inconclusive: 23.1 µM [falling, single point]"
4,CN1CCN(S(=O)(=O)c2ccc(NC(=O)c3ccco3)cc2)CC1,"inconclusive: 18.4 µM [activator, single point]"
5,O=S(=O)(c1ccc(OCC(O)CN2CCN(c3ccccc3)CC2)cc1)N1CCOCC1 (stereo unspecified),"inconclusive: 14.6 µM [falling, partial curve, poor fit]"
6,CCCCOc1ccc(C(=O)NCC(=O)NNC(=O)c2ccco2)cc1,"inconclusive: 7.31 µM [activator, partial curve, poor fit]"
7,Cc1cccc(C(=O)N2CCc3cc(-c4csc(NC(=O)CN5CCCC5)n4)ccc32)c1,"inconclusive: 23.1 µM [falling, single point]"
8,CN(Cc1ccccc1)C(=O)c1[nH]cnc1C(=O)NCc1ccc(CNC(=O)OC(C)(C)C)cc1,"inconclusive: 18.4 µM [falling, single point]"
9,Cc1ccc2nc(SCC(=O)N3CCCC3)[nH]c2c1,"inconclusive: 0.231 µM [activator, full curve]"
10,CN(C)CCCNC(=S)N(Cc1cccs1)Cc1cc2cc3c(cc2[nH]c1=O)OCCO3,"inconclusive: 2.59 µM [activator, full curve, poor fit]"
11,O=C(Oc1oc(-c2ccco2)nc1C=Nc1ccccc1)c1ccco1,"inconclusive: 0.206 µM [activator, full curve, poor fit]"
12,COc1cccc(Nc2nc3c(S(=O)(=O)c4cc(C)ccc4C)nnn3c3ccsc23)c1,"inconclusive: 25.9 µM [falling, partial curve, poor fit]"
13,O=C(CN1c2ccc(Br)cc2-c2ccccc2S1(=O)=O)N1CCCCC1,"inconclusive: 23.1 µM [activator, single point]"
14,CCOc1ccc2nc(N/C(N)=N/C(=S)Nc3cccc(OC)c3)nc(C)c2c1,"inconclusive: 29.1 µM [activator, single point]"
15,CCN(CC)C(=O)c1c(NC(=O)c2ccccc2)sc(C)c1C,inactive
16,COc1ccc(C(=O)c2sc3nc(-c4ccccc4)ccc3c2N)cc1OC,"inconclusive: 8.2 µM [falling, partial curve]"
17,COC(=O)C(O)(CC(=O)Nc1ccc(Cl)cc1F)C(F)(F)F (stereo unspecified),"inconclusive: 0.0651 µM [falling, partial curve, poor fit]"
18,COc1cccc(NC(=O)Nc2ccc3c(c2)CCC3)c1,"inconclusive: 8.2 µM [activator, partial curve, poor fit]"
19,CC(C)c1ccc2c(c1)c(SC(C)(C)C)c(CC(C)(C)C(=O)O)n2Cc1ccc(Cl)cc1,"inconclusive: 16.4 µM [falling, partial curve, poor fit]"
20,Cc1nn(-c2ccccc2)c(Cl)c1/C=N/NC(=O)c1ccccc1NS(=O)(=O)c1cccs1,"inconclusive: 14.6 µM [falling, partial curve, poor fit]"
21,Cc1cc(=O)c2cc(C(=O)Nc3ccc(F)cc3)ccc2[nH]1,"inconclusive: 18.4 µM [falling, partial curve, poor fit]"

row,Structure (SMILES),Potency
1,CCN1CCc2nc3sc(C(=O)Nc4ccccc4OC(F)(F)F)c(N)c3cc2C1,inactive
2,CCOC(=O)C1CCCN(C(=S)Nc2ccc(Nc3ccccc3)cc2)C1 (stereo unspecified),"inconclusive: 2.06 µM [activator, partial curve]"
3,COc1ccc(/C=C/C(=O)Nc2ccc(C)cc2)cc1S(=O)(=O)N1CCOCC1,"inconclusive: 14.6 µM [falling, partial curve, poor fit]"
4,Nc1c(-c2ccc3c(c2)OCCO3)oc2ccccc2c1=O,"inconclusive: 7.31 µM [activator, partial curve]"
5,Nc1c2c(nc3cccc(Cl)c13)N(c1ccccc1)CC2,"inconclusive: 9.2 µM [activator, partial curve, poor fit]"
6,COc1ccc(-c2nc3ccccc3c(=O)n2CCOc2ccccc2C)cc1,"inconclusive: 3.66 µM [activator, full curve, poor fit]"
7,Cc1ccc(C)c(Nc2c([N+](=O)[O-])cc(C(=O)N3CC(=O)Nc4ccccc43)cc2[N+](=O)[O-])c1,"inconclusive: 16.4 µM [falling, single point]"
8,Cc1ccc2c(c1)N(S(=O)(=O)c1ccc(CN3C(=O)c4cccnc4C3=O)s1)CCO2,"inconclusive: 20.6 µM [activator, single point]"
9,COc1ccc(CNC(=O)c2cc3cccc4c3n2CC(C)S4)cc1OC (stereo unspecified),"inconclusive: 23.1 µM [falling, single point]"
10,Cc1ccc(-c2nc(NC(=O)c3nn(C)cc3[N+](=O)[O-])sc2C)cc1,active: 18.4 µM
11,O=S(=O)(NCC1CCN(c2ccc(S(=O)(=O)N3CCOCC3)cc2)CC1)c1ccccc1,"inconclusive: 23.1 µM [falling, single point]"
12,CCOP(=O)(OCC)c1nc(-c2ccc(Cl)cc2Cl)oc1N1CCCCC1,active: 20.6 µM
13,Cc1ccc(CNS(=O)(=O)c2ccc3[nH]c4c(c3c2)CCCCC4)cc1,"inconclusive: 16.4 µM [falling, single point]"
14,COc1ccccc1Cn1c(=S)[nH]c2ccc(F)cc2c1=O,"inconclusive: 25.9 µM [falling, single point]"
15,CSc1ncccc1C(=O)N1CCCC(N2CCN(c3ccccc3F)CC2)C1 (stereo unspecified),"inconclusive: 14.6 µM [falling, partial curve]"
16,Cc1ccc(C)n1-n1c(C)nc2sc(-c3ccccc3)cc2c1=O,"inconclusive: 5.17 µM [falling, single point]"
17,COc1ccc(N=C2SC(CC(=O)Nc3cccc(Cl)c3)C(=O)N2Cc2ccco2)cc1 (stereo unspecified),"inconclusive: 25.9 µM [falling, single point]"
18,Cc1cccc(NC(=O)C2CCCN(S(=O)(=O)c3ccc4c(c3)CCCC(=O)N4)C2)c1 (stereo unspecified),"inconclusive: 3.26 µM [activator, full curve]"
19,Cc1ncnc(N)c1CCCNc1ccccc1,"inconclusive: 25.9 µM [falling, single point]"
